Measurements: the supplement of paper PMC6078165
The reference is the same well before dosing, and untreated signal decays as well.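 Fibroblast labels denote human fibroblasts, mainly primary ones from uterus (C12385, HUF), lung (H6013), bone (Hs27A), adrenal (HADF) and skin (WS1), plus mammary HMF and breast cancer-associated Hs343T. Cancer cells are basal-like or mesenchymal-like triple-negative breast cancer lines. A hit is a response shift exceeding 3x replicate standard deviation. The tissue of the other fibroblasts is not given here.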

System: HCC1143
Test: relative JC-1 red fluorescence (viability) vs pre-drug, coculture with fibroblast (fraction); higher = more viable cancer cells
Description: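 JC-1 labelled TNBC cells cocultured 1:1 (1,500 cells each) with CellTrace Violet stained primary or stromal fibroblasts in 384-well plates in FluoroBrite medium, treated with one of 42 anticancer drugs at 0.1, 1, 10 or 100 uM. JC-1 red fluorescence (mitochondrial integrity in cancer cells only) was read by plate reader every 8 h for 72 h. Values are normalised to each well's pre-drug value. The stock of one drug was tenfold lower, so its dose labels may be too high.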

C[C@]12CC[C@@H]3c4ccc(O)cc4C[C@@H](CCCCCCCCC[S+]([O-])CCCC(F)(F)C(F)(F)F)[C@H]3[C@@H]1CC[C@@H]2O (stereo partly drawn) [Fulvestrant]
relative JC-1 red fluorescence
Conditions | 8 h | 16 h | 24 h | 32 h | 40 h | 48 h | 56 h | 64 h | 72 h
10 µM, coculture fibroblast: C12385 | 0.873 | 0.8236 | 0.7357 | 0.661 | 0.601 | 0.56 | 0.528 | 0.491 | 0.464
10 µM, coculture fibroblast: H6013 | 0.782 | 0.707 | 0.663 | 0.665 | 0.572 | 0.556 | 0.538 | 0.529 | 0.579
10 µM, coculture fibroblast: H6019 | 0.877 | 0.8131 | 0.764 | 0.718 | 0.694 | 0.679 | 0.634 | 0.588 | 0.553
10 µM, coculture fibroblast: H6076 | 0.8107 | 0.8872 | 0.816 | 0.733 | 0.723 | 0.711 | 0.686 | 0.678 | 0.694
10 µM, coculture fibroblast: H6231 | 0.837 | 0.951 | 0.897 | 0.675 | 0.7788 | 0.738 | 0.7378 | 0.7736 | 0.79249
10 µM, coculture fibroblast: HADF | 0.812 | 0.778 | 0.755 | 0.787 | 0.68 | 0.665 | 0.641 | 0.634 | 0.718
10 µM, coculture fibroblast: HCFa | 0.8252 | 0.753 | 0.717 | 0.731 | 0.6163 | 0.5847 | 0.5598 | 0.5503 | 0.627
10 µM, coculture fibroblast: HCPF | 0.829 | 0.933 | 0.904 | 0.7207 | 0.8066 | 0.7892 | 0.801 | 0.828 | 0.83
10 µM, coculture fibroblast: HHSteC | 0.868 | 0.801 | 0.754 | 0.731 | 0.628 | 0.5948 | 0.562 | 0.543 | 0.567
10 µM, coculture fibroblast: HMF | 0.831 | 0.902 | 0.838 | 0.745 | 0.784 | 0.766 | 0.749 | 0.745 | 0.752
10 µM, coculture fibroblast: HPFa | 0.961 | 0.924 | 0.825 | 0.752 | 0.681 | 0.665 | 0.614 | 0.573 | 0.551
10 µM, coculture fibroblast: HUF | 0.923 | 0.882 | 0.832 | 0.736 | 0.702 | 0.673 | 0.635 | 0.61 | 0.59
10 µM, coculture fibroblast: Hs5 | 0.835 | 0.9437 | 0.8767 | 0.8036 | 0.772 | 0.7345 | 0.7157 | 0.717 | 0.71227
10 µM, coculture fibroblast: Hs27A | 0.82 | 0.786 | 0.744 | 0.791 | 0.642 | 0.635 | 0.609 | 0.598 | 0.73
10 µM, coculture fibroblast: Hs343T | 0.812 | 0.892 | 0.815 | 0.705 | 0.733 | 0.711 | 0.6746 | 0.6799 | 0.6698
10 µM, coculture fibroblast: WS1 | 0.8717 | 0.808 | 0.73 | 0.657 | 0.611 | 0.571 | 0.531 | 0.495 | 0.47
100 µM, coculture fibroblast: C12385 | 0.8925 | 0.853 | 0.797 | 0.749 | 0.717 | 0.707 | 0.685 | 0.688 | 0.674
100 µM, coculture fibroblast: H6013 | 0.764 | 0.697 | 0.666 | 0.666 | 0.572 | 0.562 | 0.54 | 0.532 | 0.58
100 µM, coculture fibroblast: H6019 | 0.908 | 0.8463 | 0.8199 | 0.779 | 0.768 | 0.772 | 0.75 | 0.73 | 0.719
100 µM, coculture fibroblast: H6076 | 0.892 | 0.9337 | 0.946 | 0.901 | 0.907 | 0.821 | 0.872 | 0.843 | 0.9136
100 µM, coculture fibroblast: H6231 | 0.964 | 0.724 | 0.744 | 0.853 | 0.806 | 0.917 | 0.889 | 0.801 | 0.805
100 µM, coculture fibroblast: HADF | 0.82 | 0.768 | 0.758 | 0.804 | 0.697 | 0.682 | 0.674 | 0.661 | 0.77
100 µM, coculture fibroblast: HCFa | 0.821 | 0.74 | 0.7 | 0.703 | 0.588 | 0.561 | 0.527 | 0.498 | 0.522
100 µM, coculture fibroblast: HCPF | 0.908 | 0.871 | 0.9229 | 0.838 | 0.833 | 0.881 | 0.912 | 0.908 | 0.888
100 µM, coculture fibroblast: HHSteC | 0.8397 | 0.7944 | 0.7689 | 0.75 | 0.673 | 0.657 | 0.628 | 0.614 | 0.608
100 µM, coculture fibroblast: HMF | 0.8767 | 0.931 | 0.952 | 0.8187 | 0.897 | 0.886 | 0.878 | 0.888 | 0.906
100 µM, coculture fibroblast: HPFa | 0.965 | 0.904 | 0.874 | 0.813 | 0.774 | 0.774 | 0.749 | 0.738 | 0.731
100 µM, coculture fibroblast: HUF | 0.956 | 0.9 | 0.871 | 0.806 | 0.79 | 0.776 | 0.758 | 0.747 | 0.736
100 µM, coculture fibroblast: Hs5 | 0.866 | 0.926 | 0.894 | 0.835 | 0.803 | 0.786 | 0.775 | 0.78 | 0.769
100 µM, coculture fibroblast: Hs27A | 0.805 | 0.757 | 0.72389 | 0.7857 | 0.635 | 0.629 | 0.612 | 0.605 | 0.722
100 µM, coculture fibroblast: Hs343T | 0.8838 | 0.94497 | 0.9105 | 0.825 | 0.859 | 0.85 | 0.841 | 0.866 | 0.856
100 µM, coculture fibroblast: WS1 | 0.91 | 0.875 | 0.856 | 0.808 | 0.791 | 0.773 | 0.773 | 0.779 | 0.785
